Article PMC5874678, “Bryonolic Acid Blocks Cancer Cell Clonogenicity and Invasiveness through the Inhibition of Fatty Acid: Cholesteryl Ester Formation” (Biomedicines, 2018)

Biological target: T1, cholesterol-5,6-epoxide hydrolase (ChEH) (Rattus norvegicus, UniProt Q9JJ46+Q9Z2Z8)
T1 construct: from tissue; host or cells: rat liver microsomes
T1 sequence (Q9JJ46 2-230 limits assumed): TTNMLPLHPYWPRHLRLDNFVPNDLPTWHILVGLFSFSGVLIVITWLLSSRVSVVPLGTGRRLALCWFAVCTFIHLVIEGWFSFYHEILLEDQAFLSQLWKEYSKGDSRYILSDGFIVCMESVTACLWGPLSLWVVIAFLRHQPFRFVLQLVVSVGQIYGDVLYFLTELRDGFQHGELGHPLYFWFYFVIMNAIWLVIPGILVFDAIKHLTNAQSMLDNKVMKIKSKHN
T1 sequence (Q9Z2Z8 1-471): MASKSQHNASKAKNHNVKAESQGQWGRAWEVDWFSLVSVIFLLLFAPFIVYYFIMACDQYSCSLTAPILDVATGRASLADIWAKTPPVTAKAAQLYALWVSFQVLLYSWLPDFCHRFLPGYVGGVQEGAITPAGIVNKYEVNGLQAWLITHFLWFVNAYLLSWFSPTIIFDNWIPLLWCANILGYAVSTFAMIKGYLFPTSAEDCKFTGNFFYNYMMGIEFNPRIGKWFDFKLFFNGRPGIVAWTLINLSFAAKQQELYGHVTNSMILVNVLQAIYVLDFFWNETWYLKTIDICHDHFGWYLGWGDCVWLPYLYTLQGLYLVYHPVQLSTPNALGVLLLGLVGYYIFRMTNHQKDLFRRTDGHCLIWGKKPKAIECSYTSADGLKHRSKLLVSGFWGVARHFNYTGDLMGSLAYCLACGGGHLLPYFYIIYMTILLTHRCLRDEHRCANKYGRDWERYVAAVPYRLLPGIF
Test: Cholesterol epoxide hydrolase (ChEH) inhibition assay
Type: biochemical

Compound: CC/C(=C(\c1ccccc1)c1ccc(OCCN(C)C)cc1)c1ccccc1 [tamoxifen]
- IC50: 123 nM
